Source: PMC9569509
Results are given in words; binding and its absence hold for the method and conditions named. Some binding calls cover weakened binding; strength is not graded here.

Sequences of proteins named here, by UniProt entry; tags and fusion partners are left off. A change or cut given only in a name is not applied to a line headed by its entry.
UniProt P02453: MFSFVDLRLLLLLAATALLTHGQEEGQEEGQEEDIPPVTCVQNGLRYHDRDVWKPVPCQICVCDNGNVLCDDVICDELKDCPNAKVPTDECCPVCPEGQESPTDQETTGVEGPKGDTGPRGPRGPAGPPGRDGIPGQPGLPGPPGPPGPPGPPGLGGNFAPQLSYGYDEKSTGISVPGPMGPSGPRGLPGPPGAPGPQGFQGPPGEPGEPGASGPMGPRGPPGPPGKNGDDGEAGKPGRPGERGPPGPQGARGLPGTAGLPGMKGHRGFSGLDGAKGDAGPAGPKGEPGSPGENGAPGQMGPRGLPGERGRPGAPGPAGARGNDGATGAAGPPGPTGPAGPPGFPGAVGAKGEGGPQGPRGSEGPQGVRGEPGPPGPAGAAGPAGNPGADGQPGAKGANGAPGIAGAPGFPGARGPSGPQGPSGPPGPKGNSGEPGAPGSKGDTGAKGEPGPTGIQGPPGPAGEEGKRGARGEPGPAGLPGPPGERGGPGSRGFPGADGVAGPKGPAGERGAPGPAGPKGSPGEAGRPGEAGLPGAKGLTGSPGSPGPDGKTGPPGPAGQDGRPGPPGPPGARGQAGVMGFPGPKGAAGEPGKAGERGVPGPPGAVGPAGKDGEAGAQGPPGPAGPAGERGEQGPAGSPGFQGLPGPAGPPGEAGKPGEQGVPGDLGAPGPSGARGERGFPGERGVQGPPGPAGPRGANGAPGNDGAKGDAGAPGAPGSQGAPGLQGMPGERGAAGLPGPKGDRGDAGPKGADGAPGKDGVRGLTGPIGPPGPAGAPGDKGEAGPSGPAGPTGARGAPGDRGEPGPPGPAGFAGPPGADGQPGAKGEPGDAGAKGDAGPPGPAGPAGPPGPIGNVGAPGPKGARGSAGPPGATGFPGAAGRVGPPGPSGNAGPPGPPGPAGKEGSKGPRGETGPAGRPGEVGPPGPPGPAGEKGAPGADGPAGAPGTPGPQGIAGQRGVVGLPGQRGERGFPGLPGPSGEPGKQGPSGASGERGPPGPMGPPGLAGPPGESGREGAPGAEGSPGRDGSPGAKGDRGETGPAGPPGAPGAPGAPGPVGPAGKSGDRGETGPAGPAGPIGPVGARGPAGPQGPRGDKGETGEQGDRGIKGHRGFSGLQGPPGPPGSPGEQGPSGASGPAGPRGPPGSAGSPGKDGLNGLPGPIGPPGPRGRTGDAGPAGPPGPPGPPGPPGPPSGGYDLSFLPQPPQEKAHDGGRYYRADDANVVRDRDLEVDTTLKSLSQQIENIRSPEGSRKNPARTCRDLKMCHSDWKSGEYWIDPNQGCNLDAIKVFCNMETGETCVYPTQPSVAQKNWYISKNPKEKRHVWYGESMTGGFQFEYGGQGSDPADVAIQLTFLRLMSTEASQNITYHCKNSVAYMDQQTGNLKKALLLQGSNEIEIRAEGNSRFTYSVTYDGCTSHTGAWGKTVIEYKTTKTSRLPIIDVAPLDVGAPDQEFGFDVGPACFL
UniProt P02465: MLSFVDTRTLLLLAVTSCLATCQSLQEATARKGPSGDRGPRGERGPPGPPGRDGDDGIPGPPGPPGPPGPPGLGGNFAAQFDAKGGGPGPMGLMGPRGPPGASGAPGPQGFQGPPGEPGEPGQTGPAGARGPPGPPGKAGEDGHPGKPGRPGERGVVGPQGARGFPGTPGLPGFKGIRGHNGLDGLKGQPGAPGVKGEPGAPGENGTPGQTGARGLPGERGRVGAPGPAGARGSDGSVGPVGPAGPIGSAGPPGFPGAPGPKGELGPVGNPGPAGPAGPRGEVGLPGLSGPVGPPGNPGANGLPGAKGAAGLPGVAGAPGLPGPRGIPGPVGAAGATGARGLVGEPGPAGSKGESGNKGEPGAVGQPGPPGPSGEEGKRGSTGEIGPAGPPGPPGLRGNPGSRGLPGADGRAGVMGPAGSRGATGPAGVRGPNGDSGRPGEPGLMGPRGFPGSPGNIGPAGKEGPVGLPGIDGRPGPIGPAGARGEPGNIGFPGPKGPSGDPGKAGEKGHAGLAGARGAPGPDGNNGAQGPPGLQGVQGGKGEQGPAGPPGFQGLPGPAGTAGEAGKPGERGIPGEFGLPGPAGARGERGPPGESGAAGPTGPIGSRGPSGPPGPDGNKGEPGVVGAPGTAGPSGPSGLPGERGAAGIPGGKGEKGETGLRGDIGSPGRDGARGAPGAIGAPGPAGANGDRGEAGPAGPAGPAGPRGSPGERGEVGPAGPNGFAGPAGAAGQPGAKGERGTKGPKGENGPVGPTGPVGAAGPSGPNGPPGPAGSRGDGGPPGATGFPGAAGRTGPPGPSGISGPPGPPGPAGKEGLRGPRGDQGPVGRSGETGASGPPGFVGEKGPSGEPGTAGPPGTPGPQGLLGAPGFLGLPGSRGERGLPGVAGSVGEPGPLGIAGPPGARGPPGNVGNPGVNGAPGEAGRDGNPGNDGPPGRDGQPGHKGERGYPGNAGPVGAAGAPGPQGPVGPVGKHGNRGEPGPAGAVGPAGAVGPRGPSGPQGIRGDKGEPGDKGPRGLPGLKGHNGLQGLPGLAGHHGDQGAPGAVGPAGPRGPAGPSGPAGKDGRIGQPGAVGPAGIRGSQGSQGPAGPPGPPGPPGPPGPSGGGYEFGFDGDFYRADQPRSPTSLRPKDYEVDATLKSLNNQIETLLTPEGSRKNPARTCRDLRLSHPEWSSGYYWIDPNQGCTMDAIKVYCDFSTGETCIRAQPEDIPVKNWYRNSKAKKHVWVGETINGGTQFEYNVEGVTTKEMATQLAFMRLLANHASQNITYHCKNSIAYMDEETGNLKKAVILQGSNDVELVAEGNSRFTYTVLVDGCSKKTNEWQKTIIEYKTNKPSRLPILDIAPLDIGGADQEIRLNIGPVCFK
UniProt P17301: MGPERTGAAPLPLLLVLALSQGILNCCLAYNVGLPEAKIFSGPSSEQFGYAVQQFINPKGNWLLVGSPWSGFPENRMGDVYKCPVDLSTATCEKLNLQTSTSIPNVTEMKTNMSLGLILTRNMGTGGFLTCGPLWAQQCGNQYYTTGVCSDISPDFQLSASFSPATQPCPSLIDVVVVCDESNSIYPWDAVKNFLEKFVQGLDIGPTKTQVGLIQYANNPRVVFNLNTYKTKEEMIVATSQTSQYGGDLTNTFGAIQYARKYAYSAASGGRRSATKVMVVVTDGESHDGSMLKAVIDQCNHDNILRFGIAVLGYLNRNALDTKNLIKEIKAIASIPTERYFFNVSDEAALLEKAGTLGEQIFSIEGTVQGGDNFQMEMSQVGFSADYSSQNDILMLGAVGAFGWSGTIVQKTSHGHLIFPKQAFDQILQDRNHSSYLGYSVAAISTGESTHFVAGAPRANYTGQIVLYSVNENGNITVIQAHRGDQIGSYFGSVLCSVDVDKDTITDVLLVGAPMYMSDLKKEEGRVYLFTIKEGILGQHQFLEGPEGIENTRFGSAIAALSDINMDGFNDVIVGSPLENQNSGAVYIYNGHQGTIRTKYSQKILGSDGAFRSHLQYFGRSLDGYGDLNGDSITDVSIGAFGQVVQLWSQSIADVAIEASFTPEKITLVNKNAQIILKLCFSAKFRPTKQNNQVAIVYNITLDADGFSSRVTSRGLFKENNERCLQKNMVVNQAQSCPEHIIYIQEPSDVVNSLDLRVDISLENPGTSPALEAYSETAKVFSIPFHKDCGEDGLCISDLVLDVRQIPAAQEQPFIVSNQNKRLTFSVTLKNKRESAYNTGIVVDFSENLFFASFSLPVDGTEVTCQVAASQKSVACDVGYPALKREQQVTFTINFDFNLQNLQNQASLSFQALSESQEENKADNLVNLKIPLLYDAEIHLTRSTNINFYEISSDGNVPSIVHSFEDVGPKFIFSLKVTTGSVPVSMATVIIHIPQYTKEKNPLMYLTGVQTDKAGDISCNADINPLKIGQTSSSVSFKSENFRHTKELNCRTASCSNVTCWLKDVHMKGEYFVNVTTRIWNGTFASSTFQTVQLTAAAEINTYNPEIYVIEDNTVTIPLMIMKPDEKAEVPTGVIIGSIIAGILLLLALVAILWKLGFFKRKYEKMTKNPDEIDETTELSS
UniProt Q9UKX5: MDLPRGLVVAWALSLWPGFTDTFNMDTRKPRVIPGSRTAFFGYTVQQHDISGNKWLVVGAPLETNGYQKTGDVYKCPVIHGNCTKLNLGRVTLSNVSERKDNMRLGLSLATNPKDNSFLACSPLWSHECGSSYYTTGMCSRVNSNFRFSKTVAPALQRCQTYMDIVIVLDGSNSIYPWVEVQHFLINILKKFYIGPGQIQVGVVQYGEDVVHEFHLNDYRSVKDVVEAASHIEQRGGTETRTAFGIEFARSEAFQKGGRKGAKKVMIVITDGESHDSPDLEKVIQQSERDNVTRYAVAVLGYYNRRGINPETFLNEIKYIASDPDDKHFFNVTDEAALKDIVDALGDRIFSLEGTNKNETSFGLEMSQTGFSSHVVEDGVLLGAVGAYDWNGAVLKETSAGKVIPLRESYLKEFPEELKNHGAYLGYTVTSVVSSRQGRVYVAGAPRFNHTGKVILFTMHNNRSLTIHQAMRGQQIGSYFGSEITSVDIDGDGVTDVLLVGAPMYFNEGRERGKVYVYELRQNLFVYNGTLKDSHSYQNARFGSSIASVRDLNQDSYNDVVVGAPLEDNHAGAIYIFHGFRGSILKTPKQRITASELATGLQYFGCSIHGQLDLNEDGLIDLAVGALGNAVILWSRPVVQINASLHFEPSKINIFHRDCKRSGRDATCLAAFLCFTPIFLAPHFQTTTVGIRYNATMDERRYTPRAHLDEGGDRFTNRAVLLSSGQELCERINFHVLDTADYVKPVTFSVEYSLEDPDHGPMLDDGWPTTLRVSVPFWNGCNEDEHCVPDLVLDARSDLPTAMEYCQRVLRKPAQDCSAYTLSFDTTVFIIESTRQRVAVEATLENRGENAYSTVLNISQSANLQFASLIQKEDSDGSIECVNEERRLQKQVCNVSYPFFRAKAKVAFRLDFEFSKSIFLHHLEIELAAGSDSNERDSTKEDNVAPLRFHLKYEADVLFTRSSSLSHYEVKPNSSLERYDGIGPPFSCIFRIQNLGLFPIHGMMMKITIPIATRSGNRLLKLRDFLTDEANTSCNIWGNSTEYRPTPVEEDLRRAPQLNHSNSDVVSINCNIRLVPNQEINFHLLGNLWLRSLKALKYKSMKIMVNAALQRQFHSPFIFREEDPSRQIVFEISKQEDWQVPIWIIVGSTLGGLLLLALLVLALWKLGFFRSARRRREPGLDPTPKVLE

Experiments:
[1] = molecular target: T1, Bovine PureCol collagen type I (bovine) (UniProt P02453+P02465); test: cell adhesion assay; cells seeded for 40 min at 37 °C on a thin layer of fibrillar collagen (1.24 mg/mL final) in 24-well plates blocked with 2% BSA; crystal violet, absorbance at 595 nm; only the target purified
[2] = molecular target: T1, Bovine PureCol collagen type I (bovine); test: cell adhesion assay; cells seeded for 40 min at 37 °C on monomeric collagens coated at 10 µg/mL in PBS, plates blocked with 2% BSA; crystal violet, absorbance at 595 nm; only the target purified
[3] = molecular target: T1, Bovine PureCol collagen type I (bovine); test: ELISA; solid phase assay: collagens (50 µg/mL) or fibronectin (10 µg/mL) immobilised on a 96-well plate; integrin α2β1 in 1% BSA in PBS-T with 2 mM MgCl2, 3 h at room temperature; detected by mouse anti-human integrin α2β1 and anti-mouse HRP; Kd by Scatchard plot; both purified
[4] = molecular target: T1, Bovine PureCol collagen type I (bovine); test: ELISA; solid phase assay as for the native collagens, but collagens heat-denatured (50 °C for 30 min) before immobilisation; integrin α2β1 at 20 nM, 2 mM MgCl2; both purified

With “integrin α2β1 on C2C12 cells expressing human integrin α2 (from UniProt P17301 30-1181; P09055 21-798) (receptor)” the binding [1] was “binds”.
With “integrin α11β1 on C2C12 cells expressing human integrin α11 (from UniProt Q9UKX5 23-1188; P09055 21-798) (receptor)” the binding [2] was “binds” and the binding [1] was “binds”.
For “recombinant human integrin α2β1 (from UniProt P17301 30-1132; P05556 21-728) (receptor)”, the binding [3] was “binds” and the binding [4] was “binds”.
